These are yes or no findings as the source states them, for the method shown. In cells and extracts the contact can be indirect. Some binding calls cover weakened binding; strength is not graded here.
T1: Noc1-TAP (S. cerevisiae) (UniProt Q12176)
T1 sequence: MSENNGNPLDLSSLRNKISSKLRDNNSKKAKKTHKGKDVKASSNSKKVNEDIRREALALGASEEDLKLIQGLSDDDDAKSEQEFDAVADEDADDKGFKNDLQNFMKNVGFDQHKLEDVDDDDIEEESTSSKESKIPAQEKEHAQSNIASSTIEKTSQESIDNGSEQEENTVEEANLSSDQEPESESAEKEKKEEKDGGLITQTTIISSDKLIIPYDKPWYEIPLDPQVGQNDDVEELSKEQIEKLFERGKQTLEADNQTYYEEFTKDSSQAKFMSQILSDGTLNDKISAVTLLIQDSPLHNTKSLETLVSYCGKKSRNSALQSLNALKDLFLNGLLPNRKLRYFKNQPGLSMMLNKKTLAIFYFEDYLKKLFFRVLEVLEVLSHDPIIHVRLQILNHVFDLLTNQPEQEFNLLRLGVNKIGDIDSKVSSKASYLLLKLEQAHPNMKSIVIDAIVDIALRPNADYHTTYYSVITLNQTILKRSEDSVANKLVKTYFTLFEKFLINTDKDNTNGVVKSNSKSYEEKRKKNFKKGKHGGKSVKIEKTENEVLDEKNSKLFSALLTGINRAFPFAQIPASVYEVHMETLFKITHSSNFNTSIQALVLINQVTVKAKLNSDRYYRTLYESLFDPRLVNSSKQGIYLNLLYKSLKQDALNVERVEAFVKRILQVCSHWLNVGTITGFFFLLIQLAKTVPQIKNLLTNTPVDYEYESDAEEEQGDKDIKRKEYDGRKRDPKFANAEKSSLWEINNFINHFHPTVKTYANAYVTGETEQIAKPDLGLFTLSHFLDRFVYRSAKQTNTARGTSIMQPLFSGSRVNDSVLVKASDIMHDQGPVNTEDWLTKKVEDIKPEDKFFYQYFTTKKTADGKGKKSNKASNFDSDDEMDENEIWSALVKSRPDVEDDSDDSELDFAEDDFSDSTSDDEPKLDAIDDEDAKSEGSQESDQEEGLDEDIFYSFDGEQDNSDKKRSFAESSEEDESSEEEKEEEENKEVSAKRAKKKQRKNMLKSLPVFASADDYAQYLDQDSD

Protein sequences, listed by entry. Tags and fused reporters are not part of them.
UniProt P53131: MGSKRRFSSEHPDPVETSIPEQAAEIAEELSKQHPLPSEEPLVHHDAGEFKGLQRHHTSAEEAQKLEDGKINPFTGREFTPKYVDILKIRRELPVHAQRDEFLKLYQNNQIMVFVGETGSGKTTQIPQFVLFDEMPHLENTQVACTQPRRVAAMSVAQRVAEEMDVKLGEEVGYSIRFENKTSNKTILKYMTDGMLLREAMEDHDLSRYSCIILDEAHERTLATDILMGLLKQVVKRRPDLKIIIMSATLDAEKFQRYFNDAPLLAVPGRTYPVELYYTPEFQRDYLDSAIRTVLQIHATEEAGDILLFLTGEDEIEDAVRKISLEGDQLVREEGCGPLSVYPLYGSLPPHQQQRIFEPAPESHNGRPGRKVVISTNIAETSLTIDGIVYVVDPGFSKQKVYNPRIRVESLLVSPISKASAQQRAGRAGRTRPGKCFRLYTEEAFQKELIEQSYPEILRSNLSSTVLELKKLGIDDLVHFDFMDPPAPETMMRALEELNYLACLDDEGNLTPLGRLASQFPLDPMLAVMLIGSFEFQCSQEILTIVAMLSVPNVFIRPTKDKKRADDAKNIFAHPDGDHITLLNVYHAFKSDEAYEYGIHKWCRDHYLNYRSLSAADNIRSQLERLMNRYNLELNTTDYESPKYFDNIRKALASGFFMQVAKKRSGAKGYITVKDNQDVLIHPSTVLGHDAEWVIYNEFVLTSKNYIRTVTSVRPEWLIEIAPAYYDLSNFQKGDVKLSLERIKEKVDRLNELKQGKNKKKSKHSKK
UniProt P34241: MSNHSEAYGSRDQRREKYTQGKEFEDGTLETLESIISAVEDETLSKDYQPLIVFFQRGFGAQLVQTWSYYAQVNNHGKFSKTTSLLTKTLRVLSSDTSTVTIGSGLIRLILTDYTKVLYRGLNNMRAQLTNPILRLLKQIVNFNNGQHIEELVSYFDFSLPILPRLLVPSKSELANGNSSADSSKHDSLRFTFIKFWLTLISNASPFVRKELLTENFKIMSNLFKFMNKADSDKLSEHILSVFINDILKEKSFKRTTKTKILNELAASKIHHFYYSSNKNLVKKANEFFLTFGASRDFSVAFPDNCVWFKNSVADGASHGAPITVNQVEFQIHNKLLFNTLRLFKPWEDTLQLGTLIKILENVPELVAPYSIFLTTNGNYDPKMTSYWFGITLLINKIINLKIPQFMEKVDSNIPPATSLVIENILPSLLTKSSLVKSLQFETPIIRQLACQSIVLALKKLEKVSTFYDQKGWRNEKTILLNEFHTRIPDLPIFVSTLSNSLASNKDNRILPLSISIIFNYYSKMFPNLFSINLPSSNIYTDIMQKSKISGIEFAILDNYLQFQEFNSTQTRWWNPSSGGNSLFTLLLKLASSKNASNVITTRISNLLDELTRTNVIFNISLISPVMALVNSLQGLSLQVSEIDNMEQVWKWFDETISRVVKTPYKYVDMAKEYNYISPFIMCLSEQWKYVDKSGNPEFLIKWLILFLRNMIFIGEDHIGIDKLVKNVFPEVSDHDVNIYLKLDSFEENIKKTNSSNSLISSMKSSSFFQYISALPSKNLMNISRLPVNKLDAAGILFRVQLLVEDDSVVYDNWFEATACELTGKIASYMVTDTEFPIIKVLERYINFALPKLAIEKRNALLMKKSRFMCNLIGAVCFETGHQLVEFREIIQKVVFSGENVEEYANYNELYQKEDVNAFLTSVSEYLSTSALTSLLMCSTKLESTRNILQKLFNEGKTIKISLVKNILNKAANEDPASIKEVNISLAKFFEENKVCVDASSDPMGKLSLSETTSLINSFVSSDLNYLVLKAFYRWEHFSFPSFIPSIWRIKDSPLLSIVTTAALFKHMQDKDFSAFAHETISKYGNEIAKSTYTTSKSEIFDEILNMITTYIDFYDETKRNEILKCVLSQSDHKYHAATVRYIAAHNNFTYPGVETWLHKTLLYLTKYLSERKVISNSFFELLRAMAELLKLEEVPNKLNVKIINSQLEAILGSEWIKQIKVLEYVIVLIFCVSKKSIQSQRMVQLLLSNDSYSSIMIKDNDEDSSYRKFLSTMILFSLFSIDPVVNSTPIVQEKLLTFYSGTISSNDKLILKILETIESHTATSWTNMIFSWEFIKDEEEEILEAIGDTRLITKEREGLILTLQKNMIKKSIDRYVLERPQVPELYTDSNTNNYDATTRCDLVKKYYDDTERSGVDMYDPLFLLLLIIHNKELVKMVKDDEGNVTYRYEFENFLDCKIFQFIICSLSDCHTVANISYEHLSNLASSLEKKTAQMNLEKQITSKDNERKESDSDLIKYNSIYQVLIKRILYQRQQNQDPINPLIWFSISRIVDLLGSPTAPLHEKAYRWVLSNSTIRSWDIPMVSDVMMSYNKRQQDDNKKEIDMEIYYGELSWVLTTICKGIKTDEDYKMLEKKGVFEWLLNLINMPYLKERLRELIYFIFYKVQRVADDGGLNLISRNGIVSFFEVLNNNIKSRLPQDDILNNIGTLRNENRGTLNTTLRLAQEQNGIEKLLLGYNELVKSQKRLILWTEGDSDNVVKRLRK

B1: Dbp6 (protein, UniProt P53734 1-629)
chain: MFASRFDPSQLTAPAASAPEGIVGTTPPAIVPLKRQATESDNEEYGSHQDSDESSNSSSEEDEDRMQVDYGASEEDSSEVEEEESKPSTHSTVLSRFKQTVSLQERLGASDIAESKEDEGIEDEAASTHQLKQIPQPEFVKNPMNLNTNSLQFKSTGWLNTEKIYYDNSLIKPFSDYANELEAKLLQNICKNFSTNTFPIQSIILDSILPVLNFTLNVSKRNFTRRIGDILVNAATGSGKTLAYSIPIVQTLFKRQINRLRCIIIVPTKLLINQVYTTLTKLTQGTSLIVSIAKLENSLKDEHKKLSNLEPDILITTPGRLVDHLNMKSINLKNLKFLIIDEADRLLNQSFQGWCPKLMSHLKTDKLDTLPGNVIKMIFSATLTTNTEKLNGLNLYKPKLFLKQTDKLYQLPNKLNEFNINIPTAKSVYKPLILLYSICQFMAHSPIAAKILIFVKSNESSIRLSKLLQLICESRSQSSVLKNLQNLAVSINSVNSNNSKAENKKIVANFSHHSESAGITILITTDIMSRGIDINDITQVINYDPPMSSQQYVHRVGRTARANELGSAYNLLVGRGERTFFDDLNKDLDRDGKSVQPLELDFTLLESDSELYTSSLESLKNYHNNTAQA
B2: Nop8 (protein, UniProt Q08287 1-484)
chain: MDSVIQKRIFVGNIFHNADDCYSELLDRFGKFGDCQDFQFEKHNHFAFIDIRFNDEADFNKLRKSFNNVKFKGNILKVDEAKPNWESTWAVQHAKDLKEDIILNAKMKKKNWQHYKKMENVAKSWKDHKEVIAGRMREAPRKRSQLRNITFRINVNGSLKVYKCYKTKLWGYERNKELNDLVYKFTNNFWKNGYNHIVDRLDYSRAVKTVRFKNGLKQLTVSKDENVCSGEMDSDENMSEEEKEKNNVILNDLLKDFDFDKPMTLNDSDEELLTEQRKGEEEEEEEEEKEVNAPEYENVNKTKDQSTLPQEKPEERKEQDEGDGQEDNEFIPTFTKEIGQGTISNTETLRNLFNPNEAEPVSQFKLIEDSDNDIDHAKDVDVNQLEEEVSKSSDTLGLTSAPVPHVSRDKDNKNFLFFPHLQSPFLVGQTQLSKVRAPGRETMLSNWDEEFWANRGNWTRDMRRKMKDALKHRKRKQSKSGLLL
B3: Rsa3 (protein, UniProt Q05942 1-220)
chain: MSAGDISAINIKSVKKNRRRKKRRTADVSSSDSSSSDPSSESEKEEIQNGAIEEHVGENGKSDHVFSKGNDEDKQEDIAIEVSDVELTDEESKDLKLNSKEVIDDLTKISLSKIPEPTKSQNKEGFMNASKIAENIKLAREEYNELAENFVPKGKDKTKLREEYLNLLFENYGDDINRLRAAPDFTNKSLSILADALQEGIGMFDIGELELVLKNKEMEN
B4: Nhp2 (protein, UniProt P32495 1-156)
chain: MGKDNKEHKESKESKTVDNYEARMPAVLPFAKPLASKKLNKKVLKTVKKASKAKNVKRGVKEVVKALRKGEKGLVVIAGDISPADVISHIPVLCEDHSVPYIFIPSKQDLGAAGATKRPTSVVFIVPGSNKKKDGKNKEEEYKESFNEVVKEVQAL

target: T1, Noc1-TAP (S. cerevisiae); assay: co-IP; Noc1-TAP-containing preribosomal particles precipitated on IgG-Sepharose beads from total cell extracts of wild-type, snr190-[mut.C] and dbp7Δ strains; 2 h at 4 °C; A200-KCl buffer (20 mM Tris-HCl pH 8.0, 5 mM magnesium acetate, 200 mM KCl, 0.2% Triton-X100), final washes in A200-NaCl buffer; co-purified proteins detected by western blotting

binding, binds:
Prp43 (from UniProt P53131 1-767)
Npa1 (from UniProt P34241 1-1764)
B1
B2
B3
B4

Reference: paper PMC8536666
